Some of these results come from one statement about several compounds together. For at least one compound, name, drawing or mass did not settle the structure.
target: T1, human JAK1 kinase domain (Homo sapiens, UniProt P23458); experiment: JAK1 inhibition assay (Example B), Caliper LabChip peptide phosphorylation; format: biochemical; conditions: 1.5 nM JAK1, 25 μM ATP, Morrison tight binding model; read-out: Ki in a JAK1 kinase activity assay (Example B)
T1 construct: made in house; host or cells: SF9 insect cells (baculovirus)

The chains behind the UniProt entries cited, without tags or fusion partners. Residues count along the entry.
UniProt P23458, 852-1154: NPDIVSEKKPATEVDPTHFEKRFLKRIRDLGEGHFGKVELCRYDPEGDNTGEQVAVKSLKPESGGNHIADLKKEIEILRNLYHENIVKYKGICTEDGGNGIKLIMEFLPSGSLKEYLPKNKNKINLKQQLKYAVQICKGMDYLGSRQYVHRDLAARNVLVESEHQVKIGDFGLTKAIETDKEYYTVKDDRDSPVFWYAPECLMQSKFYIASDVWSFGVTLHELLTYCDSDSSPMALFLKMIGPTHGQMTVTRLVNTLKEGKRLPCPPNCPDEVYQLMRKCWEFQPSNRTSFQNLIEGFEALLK

SMILES | Ki
Cc1nc2cnc3[nH]ccc3c2n1C1CC2CCC1C2 (stereo not drawn) [Example 121, 1-Bicyclo[2.2.1]hept-2-yl-2-methyl-1,6-dihydro-1,2,3,5,6-tetraaza-as-indacene] | < 500 nM
CC(=O)NCc1nc2cnc3[nH]ccc3c2n1C1CCNCC1 [Example 207, N-(1-Piperidin-4-yl-1,6-dihydro-1,2,3,5,6-tetraaza-as-indacen-2-ylmethyl)-acetamide] | < 500 nM
CC(O)c1nc2cnc3[nH]ccc3c2n1CC1CCCO1 (stereo not drawn) [Example 699, 1-[1-(Tetrahydro-furan-2-ylmethyl)-1,6-dihydro-1,2,3,5,6-tetraaza-as-indacen-2-yl]-ethanol] | < 500 nM
CC(O)c1nc2cnc3[nH]ccc3c2n1CC1CCCO1 (stereo not drawn) [Example 700, 1-[1-(Tetrahydro-furan-2-ylmethyl)-1,6-dihydro-1,2,3,5,6-tetraaza-as-indacen-2-yl]-ethanol] | < 500 nM
CCOC(=O)N1CCC(n2c([C@@H](C)O)nc3cnc4[nH]ccc4c32)CC1 [Example 927] | < 500 nM

same assay, conditions: read-out: Ki in a JAK1 kinase activity assay (Example B)

SMILES | Ki
FC(F)(F)c1nc2cnc3[nH]ccc3c2n1[C@@H]1CCCN(Cc2ccccc2)C1 [Example 287] | < 500 nM

From patent publication US8461328B2, “Tricyclic heterocyclic compounds, compositions and methods of use thereof” (Genentech, Inc., priority 2010, dated 2013)
